From ChEMBL document CHEMBL3988442, “University of Dundee, Small-Polar-MMV Screening Library” (2021).

Mtb cholesterol medium: 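Growth of Mycobacterium tuberculosis over 4 days (cholesterol / DPPC medium with tyloxapol); the read-out is not stated. Concentration: 50 µM. The record gives no direction; compounds that gave an IC50 in retests scored well above the rest, so higher reads as more growth inhibition. About 69,000 compounds were tested under these conditions; 0.54% (about 370) showed 50% or more at least once.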
Mtb glucose medium: 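Phenotypic screen: M. tuberculosis growth, glucose 7H9 medium, 3 days; the read-out is not stated. Tested at 50 µM. The record gives no direction; compounds that gave an IC50 in retests scored well above the rest, so higher reads as more growth inhibition. Size under these conditions: about 69,000 compounds, about 760 of them at 50% or above in at least one test.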

Each number is a percent effect as filed.
The controls that fix the scale are not given in the record; negative values are as filed.
Compounds were drawn at random from those tested, without regard to their results.
Two or more numbers in one place are separate tests of the same structure; such repeats can differ widely.

Compound | Mtb cholesterol medium | Mtb glucose medium
COc1ncccc1CN1CCC2(CC1)COCCN2C.O=C(O)C(F)(F)F.O=C(O)C(F)(F)F | 31.66 | 0.02306 and -1.234
CCC(=O)N1CCC(c2nc(C)ncc2-c2ccncc2)CC1 | -6.919 and -11.94 | 6.797
CCn1nc(CC(C)C)cc1C(=O)N1CCC(n2cnnc2)CC1 | -26.7 | -23.54
CN(C)Cc1ccc(N2CCN(CCOCC(F)(F)F)CC2)nc1 | 16.14 | -12.09
O=C(NCc1ccccn1)NCC(c1ccco1)N1CCCC1 (stereo not drawn) | 8.531 | 28.03 and 2.674
CC(C)c1nccn1C1CCCN(C(=O)CCCc2ccccn2)C1 (stereo not drawn) | -28.85 | -0.816
COCCOCCNC(=O)N1CCc2c(F)ccc(F)c2C1 | -17.97 | -17.41
COc1cc(Cl)c(NCc2c(C)noc2C)cc1OC | -8.892 | -35.74
CCN1CCC(NC(=O)Cc2csc(C(C)(C)C)n2)CC1 | -6.152 | 30.53
CCc1nc(C2CCCN2CC(=O)Nc2nnc(C)s2)no1 (stereo not drawn) | 9.779 | 28.29
CCOC(=O)CCC(=O)N1CCC(CSCc2ccco2)CC1 | 33.2 | 51.46
COCc1nc(C2CC2)nn1-c1cccc(F)c1 | 0.7706 | -18.79
O=C(CCn1ccnc1)N1CC[C@H](Oc2cccc(F)c2)[C@@H](O)CC1 | -23.92 and -38.49 | -26.08
O=C(O)C(F)(F)F.[H][C@@]12CCCO[C@]1([H])[C@H](OCc1ccncc1)CN2S(=O)(=O)CCC | -9.761 | -15.44
CCN1CCC(CC(=O)N[C@H](C(=O)O)c2cccc(F)c2F)CC1 | 2.497 | -30.15
Cc1cc(C(=O)NCc2ccc(N3CCCC(C(N)=O)C3)cc2)on1 (stereo not drawn) | -8.152 | 7.883
CC(CO)(NCc1noc(Cc2ccccc2)n1)C1CCCCC1 (stereo not drawn) | -11.74 | 0.5488
Cc1ccc(C(=O)N2CCCC3(C2)C(=O)N(C)c2ccccc23)c(=O)[nH]1 (stereo not drawn) | 3.716 | 29.7
Cc1cc(CN2CCN(C(=O)NC(C)c3cccnc3)CC2)on1 (stereo not drawn) | -1.662 | 13.81
CCS(=O)(=O)CC(=O)NC1(c2ccc(Cl)c(Cl)c2)CC1 | -21.12 | 4.381 and 21.72
[H][C@@]12CCN(c3cnccn3)C[C@@]1(C(=O)O)CCCN2Cc1cnn(C)c1 | -6.654 and 0.5628 | -5.63
CCCN(C(=O)c1ccc(-n2ccnn2)cc1)c1cccnc1 | 11.46 | -2.145 and 20.34
Cc1oc(C)c(C(=O)NCc2cccc(NC(=O)CN(C)C)c2)c1C | -5.908 | 11.01
CS(=O)(=O)CCn1ccc(NC(=O)Cc2ccccc2F)n1 | 17.64 | -1.768 and 1.139
Fc1ccccc1OCCN1CCCCC1Cn1cncn1 (stereo not drawn) | -24.39 | 4.509
Cc1ccc(-c2nc(C(=O)N3CCCCC3CNS(C)(=O)=O)cs2)cc1 (stereo not drawn) | -8.738 | -17.71
CCC(=O)Nc1ccc(F)cc1OC | -30.27 | -0.1524 and 2.303
Cn1ccnc1CN1CCC(F)(F)C2(CCN(c3cnccn3)C2)C1.O=C(O)C(F)(F)F (stereo not drawn) | -66 | 20.53
O=C(CO)N1CCN(S(=O)(=O)CCCF)CC1 | -24.76 | -5.405
COCC1CCN(C(=O)c2cn(Cc3cccc(C(F)(F)F)c3)nn2)C1 (stereo not drawn) | 3.343 | 25.08
Cc1ccc(S(=O)(=O)N2CCC(N3CCCCC3)CC2)cc1C | -24.62 | -29.21 and -1.308
CCn1c(=O)c2sccc2n(CC(=O)Nc2cccc(Cl)c2)c1=O | -21.18 | -5.342
Cc1cc(C(=O)NCc2ccc(N3CCN(C)CC3)nc2)c(C)s1 | 5.715 | 2.608
Cc1noc(CNC(=O)C(C)(C)NC(=O)OC(C)(C)C)n1 | -26.77 | -34.88 and -4.627
O=C(O)C(F)(F)F.[H][C@]12C[C@H](C(=O)NC)N(S(C)(=O)=O)[C@@]1([H])CN(Cc1csc(C)n1)C2 | -20.77 | -53.31
CN(CCCOc1ccccc1)C(=O)c1csc(-c2nnc[nH]2)n1 | 0.3459 and 51.78 | 8.959
[H][C@@]12CCN(Cc3nc(C)cs3)C[C@@]1([H])O[C@H](c1nc(C)no1)C2 | -9.073 | -33.02
CCc1c(C)nn(CCNC(=O)c2csc(C)n2)c1C | -31.83 | 5.008
CCCOc1ccc(C(=O)Oc2cc(=O)n3cccc(C)c3n2)cc1 | 10.12 | 33.83
O=C(c1ccnnc1)N1CCn2cc(CN3CCCCC3)nc2C1 | -3.132 and -10.53 | -24.41

Repeated from the top, 2 entries:

- COc1ncccc1CN1CCC2(CC1)COCCN2C.O=C(O)C(F)(F)F.O=C(O)C(F)(F)F : Mtb cholesterol medium: 31.66%; Mtb glucose medium: 0.02306% and -1.234%
- CCC(=O)N1CCC(c2nc(C)ncc2-c2ccncc2)CC1 : Mtb cholesterol medium: -6.919% and -11.94%; Mtb glucose medium: 6.797%